Results are given in words; binding and its absence hold for the method and conditions named. Some binding calls cover weakened binding; strength is not graded here. Sequences can lack the tags named with a protein.
T1: BD-Upf1 N-terminus (1–230) (S. cerevisiae) (UniProt P30771)
T1 sequence: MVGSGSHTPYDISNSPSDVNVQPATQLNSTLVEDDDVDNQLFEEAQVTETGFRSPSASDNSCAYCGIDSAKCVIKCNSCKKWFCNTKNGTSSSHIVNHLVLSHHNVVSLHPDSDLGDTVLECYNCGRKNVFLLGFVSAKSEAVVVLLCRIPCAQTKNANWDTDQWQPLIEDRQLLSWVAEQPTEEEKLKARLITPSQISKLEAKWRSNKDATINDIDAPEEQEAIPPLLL

T2: Upf1 full-length (tethered to the binding domain) (S. cerevisiae) (UniProt P30771)
T2 sequence: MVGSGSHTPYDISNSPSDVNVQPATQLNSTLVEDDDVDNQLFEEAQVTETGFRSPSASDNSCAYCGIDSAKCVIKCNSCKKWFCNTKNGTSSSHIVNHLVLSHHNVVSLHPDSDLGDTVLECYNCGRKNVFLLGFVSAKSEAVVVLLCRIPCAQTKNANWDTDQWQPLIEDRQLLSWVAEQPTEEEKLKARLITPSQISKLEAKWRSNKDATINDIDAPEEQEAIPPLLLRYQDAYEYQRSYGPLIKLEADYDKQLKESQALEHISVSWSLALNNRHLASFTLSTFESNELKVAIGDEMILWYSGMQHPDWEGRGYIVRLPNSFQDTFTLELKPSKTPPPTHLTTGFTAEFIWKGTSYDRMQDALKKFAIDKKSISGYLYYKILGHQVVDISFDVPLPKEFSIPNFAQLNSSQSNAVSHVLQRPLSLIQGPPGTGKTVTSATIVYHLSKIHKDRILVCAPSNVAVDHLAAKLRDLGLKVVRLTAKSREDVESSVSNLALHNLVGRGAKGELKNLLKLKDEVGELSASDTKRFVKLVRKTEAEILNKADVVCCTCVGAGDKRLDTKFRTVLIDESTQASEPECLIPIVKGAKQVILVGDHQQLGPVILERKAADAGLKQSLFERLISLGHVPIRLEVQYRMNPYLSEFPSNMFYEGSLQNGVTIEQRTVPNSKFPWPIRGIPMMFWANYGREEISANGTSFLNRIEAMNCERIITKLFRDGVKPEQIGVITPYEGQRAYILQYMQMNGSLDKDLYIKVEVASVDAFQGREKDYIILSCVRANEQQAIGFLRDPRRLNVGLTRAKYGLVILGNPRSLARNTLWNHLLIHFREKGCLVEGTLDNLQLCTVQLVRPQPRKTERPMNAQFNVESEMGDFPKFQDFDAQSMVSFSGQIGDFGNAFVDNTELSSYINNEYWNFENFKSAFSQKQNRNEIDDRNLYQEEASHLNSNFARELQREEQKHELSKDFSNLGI


Experiments:
[1] = target: T1, BD-Upf1 N-terminus (1–230) (S. cerevisiae); experiment: two-hybrid; yeast two-hybrid, β-galactosidase plate assay; one haploid strain transformed with both the AD and BD plasmids; deletion strains yRP2834 (edc3Δ), yRP2835 (upf2Δ), yRP2836 (pat1Δ)
[2] = target: T1, BD-Upf1 N-terminus (1–230) (S. cerevisiae); experiment: two-hybrid; yeast two-hybrid, β-galactosidase plate assay; AD and BD fusions; for the point mutants: mating of MATa (yRP2094) and MATα (yRP2093) strains and selection of diploids on drop-out media
[3] = target: T2, Upf1 full-length (tethered to the binding domain) (S. cerevisiae); experiment: as above

Binder | binding [1] | binding [2] | binding [3]
AD-Edc3 Full-length (protein, UniProt P39998 1-551) MSQFVGFGVQVELKDGKLIQGKIAKATSKGLTLNDVQFGDGGKSQAFKVRASRLKDLKVLTVASQSGKRKQQRQQQQQNDYNQNRGEHIDWQDDDVSKIKQQEDFDFQRNLGMFNKKDVFAQLKQNDDILPENRLQGHNRKQTQLQQNNYQNDELVIPDAKKDSWNKISSRNEQSTHQSQPQQDAQDDLVLEDDEHEYDVDDIDDPKYLPITQSLNITHLIHSATNSPSINDKTKGTVINDKDQVLAKLGQMIISQSRSNSTSLPAANKQTTIRSKNTKQNIPMATPVQLLEMESITSEFFSINSAGLLENFAVNASFFLKQKLGGRARLRLQNSNPEPLVVILASDSNRSGAKALALGRHLCQTGHIRVITLFTCSQNELQDSMVKKQTDIYKKCGGKIVNSVSSLESAMETLNSPVEIVIDAMQGYDCTLSDLAGTSEVIESRIKSMISWCNKQRGSTKVWSLDIPNGFDAGSGMPDIFFSDRIEATGIICSGWPLIAINNLIANLPSLEDAVLIDIGIPQGAYSQRTSLRKFQNCDLFVTDGSLLLDL | binds | binds | –
AD-Dcp2 (102–245) (domain or fragment, UniProt P53550 102-245) SIPVRGAAIFNENLSKILLVQGTESDSWSFPRGKISKDENDIDCCIREVKEEIGFDLTDYIDDNQFIERNIQGKNYKIFLISGVSEVFNFKPQVRNEIDKIEWFDFKKISKTMYKSNIKYYLINSMMRPLSMWLRHQRQIKNED | – | no binding | –
AD-Dcp2 (102–300) (domain or fragment, UniProt P53550 102-300) SIPVRGAAIFNENLSKILLVQGTESDSWSFPRGKISKDENDIDCCIREVKEEIGFDLTDYIDDNQFIERNIQGKNYKIFLISGVSEVFNFKPQVRNEIDKIEWFDFKKISKTMYKSNIKYYLINSMMRPLSMWLRHQRQIKNEDQLKSYAEEQLKLLLGITKEEQIDPGRELLNMLHTAVQANSNNNAVSNGQVPSSQE | – | – | no binding

— paper PMC3204985
